PubChem BioAssay AID652243, Drosophila RNAi Screening Center, 2013
Screen: 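Fly genes required for human androgen receptor driven transcription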 (primary screen). Cell system: Drosophila S2R+ cells. Knock-down reagent: long dsRNA against Drosophila genes. Time to read-out: 72 h (48 h, then 24 h hormone). Challenge: synthetic androgen R1881 at 10 nM for 24 h. Read-out: 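Firefly light from an androgen-responsive reporter and Renilla control light per well, raw and unnormalised, for each of two replicates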. Reading the numbers: firefly reporter light: higher = more light from androgen-responsive reporter; Renilla control light: higher = more constitutive control signal (cell number, transfection). Active means: 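Across duplicate plates, a knock-down whose log firefly/Renilla ratio shifted a set fold down or up from the GFP/LacZ control mean was a hit; the downward cut appears as both 1.5 and 3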. Meaning of the calls: active = hit: reporter lowered or raised; inactive = no hit.
The screen tested about 24,000 reagents; shown is a random part of those with a known target gene and a result. In the full data, 246 (1%) got an active call. 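Plates not normalised; calls are printed but the firefly/Renilla ratio behind them is not deposited; fold cut for lowering reported inconsistently.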 Raw values are not corrected between plates. Reagent sequences are not shown. The record does not give: the amount of reagent.

gene knocked down	dsRNA	firefly reporter light, replicate 1	firefly reporter light, replicate 2	Renilla control light, replicate 1	Renilla control light, replicate 2	activity call
Taf2	DRSC11298	6.88e5	4.58e5	1.07e6	1.30e6	inactive
Taf2	DRSC26215	1.55e5	1.19e5	5.17e5	4.89e5	inactive
CG1637	DRSC18865	1.52e6	6.25e5	2.85e6	8.71e5	inactive
CG1637	DRSC19748	81479	82126	5.66e5	6.15e5	inactive
CG1637	DRSC19749	2.44e5	2.46e5	2.58e6	2.24e6	inactive
CG1637	DRSC29080	3.63e5	3.10e5	1.10e6	1.38e6	inactive
CG42594	DRSC18408	2.13e5	4.10e5	2.59e6	3.38e6	inactive
CG42594	DRSC22978	7.68e5	9.48e5	1.38e6	1.45e6	inactive
CG42594	DRSC25767	3.91e5	4.38e5	8.55e5	5.94e5	inactive
CG42594	DRSC26285	3.16e5	3.58e5	8.05e5	7.94e5	inactive
CG42594	DRSC28979	7.35e5	7.59e5	1.67e6	1.61e6	inactive
Gbeta13F	DRSC20247	1.10e5	90772	5.68e5	5.38e5	inactive
CG31705	DRSC01991	4.64e5	5.68e5	9.92e5	1.36e6	inactive
CG31705	DRSC30021	6.06e5	3.93e5	8.32e5	9.65e5	inactive
CG8206	DRSC20093	30960	54487	5.00e5	4.48e5	inactive
CG15635	DRSC00470	3.51e5	3.20e5	2.02e6	2.40e6	inactive
CG15635	DRSC22873	1.88e5	2.13e5	7.18e5	1.12e6	inactive
AIMP3	DRSC04500	2.21e5	2.11e5	1.47e6	1.40e6	inactive
AIMP3	DRSC26724	3.53e5	3.16e5	7.07e5	8.14e5	inactive
CG9427	DRSC16490	77590	1.19e5	8.91e5	1.06e6	inactive
CG9427	DRSC28856	5.04e5	3.79e5	1.56e6	1.06e6	inactive
CG4820	DRSC15654	83367	1.67e5	1.31e6	2.28e6	inactive
RpS9	DRSC11273	4.82e5	3.72e5	1.21e6	1.67e6	inactive
Nulp1	DRSC09677	1.14e6	9.19e5	1.13e6	1.23e6	inactive
